Laboratory results published in patent publication US5169780A, “Enantiomeric enrichment and stereoselective synthesis of chiral amines” (Celgene Corporation, priority 1990, dated 1992).
At least one compound was matched to its structure with a doubt left.

Experiments:
[1] = test system: omega-amino acid transaminase; experiment: relative rates of conversion of 1-phenyl-3-aminobutane with different amino acceptors in place of pyruvate; type: biochemical; conditions: substrate 1-phenyl-3-aminobutane
Description: (§1) Enzyme Activity: Enzyme activity is expressed herein as units/mg. A unit of enzyme activity is defined as that which produces 1 micromole of ketone per minute. For uniformity, this is measured as micromoles of 1-phenylbutan-3-one formed from R,S-1-phenyl-3-aminobutane. The following standardized assay was utilized to measure the activity of the omega-amino acid transaminases set forth in the examples which follow.
(§2) A known volume of the enzyme preparation to be tested is incubated at 37° C. and pH 7 in a solution having the following composition:
(§3) A sample is removed and 20% by volume of 12% aqueous trichloroacetic acid are added. Precipitated protein is removed by centrifugation and the concentration of 1-phenylbutan-3-one in the supernatant is determined by liquid chromatography on a 100×8 mm 4 micron Novopak phenyl column eluting with 40% isopropanol and 0.09% phosphoric acid in water. Under these conditions, 1-phenylbutan-3-one elutes at 5.3 minutes.
The following procedure exemplifies the relative rates of conversion with 1-phenyl-3-aminobutane employing different amino acceptors in place of pyruvate in the assay described above.

[2] = test system: omega-amino acid transaminase; experiment: standardized omega-amino acid transaminase activity assay (1-phenylbutan-3-one formed from R,S-1-phenyl-3-aminobutane), B. megaterium enzyme; type: biochemical, Bacillus megaterium; conditions: pH 9, 50 mM Tris/HCl, 30 mM R,S-1-phenyl-3-aminobutane, 100 mM sodium pyruvate as amino acceptor
Description: as §1, §2, §3
Enzyme extracts from P. putida, B. megaterium, and P. aeruginosa obtained as above were assayed as above at pH 9 in 50 mM of Tris/HCl using 30 mM of R,S-1-phenyl-3-aminobutane, with and without 100 mM of sodium pyruvate. The following relative rates of conversion were observed. […]

[3] = test system: omega-amino acid transaminase; experiment: standardized omega-amino acid transaminase activity assay, P. putida enzyme; type: biochemical, Pseudomonas putida; conditions: pH 9, 50 mM Tris/HCl, 30 mM R,S-1-phenyl-3-aminobutane, 100 mM sodium pyruvate as amino acceptor
Description: as §1, §2, §3
Pseudomonas putida ATCC 39213 was cultured as described in Example 1 and an enzyme extract then was obtained as therein described. The specific activity of the omega-amino acid transaminase was 0.045 units/mg.
Enzyme extracts from P. putida, B. megaterium, and P. aeruginosa obtained as above were assayed as above at pH 9 in 50 mM of Tris/HCl using 30 mM of R,S-1-phenyl-3-aminobutane, with and without 100 mM of sodium pyruvate. […]

| SMILES | Relative Rate of Conversion ([1]; amino acceptor 20 mM) | Relative Rate of Conversion ([1]; amino acceptor 25 mM) | Relative Rate of Conversion B. megaterium [2] | Relative Rate of Conversion P. putida [3] |
| --- | --- | --- | --- | --- |
| O=C(O)CC(=O)C(=O)O [oxaloacetate] | 100 | – | – | – |
| CCC(=O)C(=O)O [2-ketobutyrate] | – | 21 | – | – |
| O=C(O)C(=O)CO [hydroxypyruvate] | – | 18 | – | – |
| CC(=O)C(=O)O [pyruvate] | 100 | – | 100 | 100 |
